Results are given in words; binding and its absence hold for the method and conditions named. Binding seen in cells or lysates may run through a third protein. Some entries that bind do so weakly or less than the wild type. For part of these data: Sequences can lack the tags named with a protein.

Sequences of proteins named here, by UniProt entry; tags and fusion partners are left off.
UniProt O94817: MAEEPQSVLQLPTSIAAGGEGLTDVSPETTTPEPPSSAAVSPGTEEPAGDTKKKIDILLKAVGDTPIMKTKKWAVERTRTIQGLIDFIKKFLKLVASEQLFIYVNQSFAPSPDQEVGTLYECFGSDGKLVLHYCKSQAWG

For experiment [1], the target named is T1, Flag-ARL6IP5 (ADP-ribosylation-like factor 6 interacting protein 5), overexpressed (UniProt O75915).
T1 sequence: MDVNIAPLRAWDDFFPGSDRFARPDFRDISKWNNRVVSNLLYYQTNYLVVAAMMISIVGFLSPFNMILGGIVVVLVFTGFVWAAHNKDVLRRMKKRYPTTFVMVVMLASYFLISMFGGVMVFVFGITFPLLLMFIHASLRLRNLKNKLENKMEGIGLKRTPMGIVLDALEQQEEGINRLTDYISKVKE
The experiment is described as follows: co-IP; ARL6IP5 immunoprecipitated from lysate of cells overexpressing it for 24 h; 200 ug lysate protein, 2 ug primary antibody overnight at 4 C, protein-A agarose beads, washed with PBS; blots for ATG5 and ATG12.

For experiment [2], the target named is T2, basal ARL6IP5 (human (endogenous in SH-SY5Y)) (UniProt O75915).
T2 sequence: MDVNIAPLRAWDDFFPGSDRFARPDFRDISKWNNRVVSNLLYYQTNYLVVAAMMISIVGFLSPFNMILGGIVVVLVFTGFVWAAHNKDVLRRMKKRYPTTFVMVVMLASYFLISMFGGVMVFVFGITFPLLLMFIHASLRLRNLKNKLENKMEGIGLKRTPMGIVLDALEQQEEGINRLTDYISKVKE
Nature of the experiment: co-IP; basal ARL6IP5 expression level (no overexpression); cell lysate, protein-A agarose beads.

For experiment [3], the target named is ATG12 (human (endogenous in SH-SY5Y)) (UniProt O94817). Nature of the experiment: co-IP; ATG12 immunoprecipitated from lysate of cells overexpressing Flag-ARL6IP5; flag-ARL6IP5 detected by blot; protein-A agarose beads.

As for ATG12 (from UniProt O94817 1-140), the binding entry in experiment [1] and in experiment [2] was “binds” each time.

B1: Flag-ARL6IP5 (ADP-ribosylation-like factor 6 interacting protein 5), overexpressed (protein, UniProt O75915 1-188)
chain: MDVNIAPLRAWDDFFPGSDRFARPDFRDISKWNNRVVSNLLYYQTNYLVVAAMMISIVGFLSPFNMILGGIVVVLVFTGFVWAAHNKDVLRRMKKRYPTTFVMVVMLASYFLISMFGGVMVFVFGITFPLLLMFIHASLRLRNLKNKLENKMEGIGLKRTPMGIVLDALEQQEEGINRLTDYISKVKE
Regarding B1, the binding result in experiment [3] is recorded as “binds”.

The values are drawn from publication PMC10341401.
